The text below walks through data of paper PMC7334503.

The target of assay [1] is T1, FLD tagged at the carboxyl terminus with FLAG-TAP epitopes (FLD-FLAG-TAP) (Arabidopsis thaliana) (UniProt Q9CAE3).
T1 sequence: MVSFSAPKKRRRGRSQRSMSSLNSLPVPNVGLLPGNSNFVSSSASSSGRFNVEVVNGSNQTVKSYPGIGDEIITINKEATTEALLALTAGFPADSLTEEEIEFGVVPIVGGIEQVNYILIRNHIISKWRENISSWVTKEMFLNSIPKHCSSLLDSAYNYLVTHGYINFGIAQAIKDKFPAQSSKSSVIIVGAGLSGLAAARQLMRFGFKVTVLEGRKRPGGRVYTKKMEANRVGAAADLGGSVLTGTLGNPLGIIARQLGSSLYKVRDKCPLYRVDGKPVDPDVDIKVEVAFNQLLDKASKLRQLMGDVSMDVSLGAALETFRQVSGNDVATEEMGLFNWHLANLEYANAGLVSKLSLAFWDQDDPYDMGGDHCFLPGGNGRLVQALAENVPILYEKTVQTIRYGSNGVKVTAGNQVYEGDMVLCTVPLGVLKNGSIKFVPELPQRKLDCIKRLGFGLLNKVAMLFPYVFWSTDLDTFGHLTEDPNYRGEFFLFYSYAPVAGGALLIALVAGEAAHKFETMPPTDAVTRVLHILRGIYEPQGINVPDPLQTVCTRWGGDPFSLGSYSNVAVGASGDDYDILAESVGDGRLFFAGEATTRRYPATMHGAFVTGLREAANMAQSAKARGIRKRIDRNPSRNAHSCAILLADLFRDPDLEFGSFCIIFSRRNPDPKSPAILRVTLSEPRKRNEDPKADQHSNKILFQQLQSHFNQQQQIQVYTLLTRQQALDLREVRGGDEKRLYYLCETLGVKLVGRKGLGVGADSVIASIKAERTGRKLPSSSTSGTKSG
In words: co-IP; stable transgenic plants, F1 of FLD-FLAG-TAP line crossed with SDG26-GFP line (or with sdg26 mutant as control); immunoblot. On the technique in general: In western blotting, separated proteins are transferred to a membrane and probed.

Assay [2] has as its target T2, SDG26-FLAG-TAP (Arabidopsis thaliana) (UniProt Q84WW6).
T2 sequence: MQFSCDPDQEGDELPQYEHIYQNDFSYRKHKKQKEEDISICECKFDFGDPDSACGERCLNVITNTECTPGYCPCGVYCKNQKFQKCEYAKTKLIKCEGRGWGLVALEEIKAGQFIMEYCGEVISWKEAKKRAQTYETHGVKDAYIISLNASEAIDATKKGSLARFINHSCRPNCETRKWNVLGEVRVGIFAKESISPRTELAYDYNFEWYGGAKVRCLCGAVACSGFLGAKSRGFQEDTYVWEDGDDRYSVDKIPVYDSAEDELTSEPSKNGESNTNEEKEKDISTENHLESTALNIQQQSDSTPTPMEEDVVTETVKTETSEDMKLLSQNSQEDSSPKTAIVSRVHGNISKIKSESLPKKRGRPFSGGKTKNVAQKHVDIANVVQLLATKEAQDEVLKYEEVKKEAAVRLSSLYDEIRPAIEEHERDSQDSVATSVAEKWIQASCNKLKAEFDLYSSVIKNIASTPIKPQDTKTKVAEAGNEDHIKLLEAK
In words: co-IP; cross-linked nuclear immunoprecipitation of SDG26 from an SDG26-FLAG-TAP transgenic line, probed with an FY antibody.

These are yes or no findings as the source states them, for the method shown. Binding seen in cells or lysates may run through a third protein. Some binding calls cover weakened binding; strength is not graded here. Where a sequence is shown, tags or fusion partners need not be part of it.

For the molecule SDG26-GFP (from UniProt Q84WW6 1-492), in assay [1], the binding entry is “binds”.

B1: FY (WDR33) (protein, UniProt Q6NLV4 1-647)
chain: MYAGGDMHRGSQMPQPPMMRQSSASSTNINPDYHHPSGPFDPNVDSFGAKRMRKHTQRRAVDYTSTVVRYIQARTWQRDSRDRTTLQPTPAAAVDMLPTVAYSDNPSTSFAAKFVHASLNKNRCSINRVLWTPSGRRLITGSQSGEFTLWNGQSFNFEMILQAHDQPIRSMVWSHNENYMVSGDDGGTLKYWQNNMNNVKANKTAHKESIRDLSFCKTDLKFCSCSDDTTVKVWDFTKCVDESSLTGHGWDVKSVDWHPTKSLLVSGGKDQLVKLWDTRSGRELCSLHGHKNIVLSVKWNQNGNWLLTASKDQIIKLYDIRTMKELQSFRGHTKDVTSLAWHPCHEEYFVSGSSDGSICHWIVGHENPQIEIPNAHDNSVWDLAWHPIGYLLCSGSNDHTTKFWCRNRPADNPRDVLMQNQGYNEQGFGRQPDNFQPSEASPIPGAFVPGLTRNEGTIPGIGIAMPFDASSQGDHKQPLPGSMALGAPPLPPGPHPSLLGSGQQQGYQQQQQHQGHPQQMLPMPNMPHHQLPPSSHMPLHPHHLPRPMQMPPHGHMPPPSMPMSHQMPGSMGMQGGMNPQMSQSHFMGAPSGVFQGQPNSGGPQMYPQGRGGFNRPQMIPGYNNPFQQQQQPPLPPGPPPNNNQQHQ
On to B1, for which the binding entry in assay [2] is recorded as “binds”.
